*: point of attachment. Dde = CC(=C1C(=O)CC(C)(C)CC1=O)*; Boc = CC(C)(C)OC(=O)*
Key:
[1] = general procedure: Fmoc solid-phase peptide synthesis; HMPB-BHA resin (0.86 mmol/g); Wang resin; HATU/DIEA; HBTU/HOBT/DIEA; settings: conjugation step
[2] = general procedure: Fmoc solid-phase peptide synthesis; HMPB-BHA resin; HATU/DIEA; HBTU/HOBT/DIEA; settings: whole synthesis

3-(6-(3-(N-(3-((6-((1-Aza-2-(2-sulfophenyl)vinyl)amino)(3-pyridyl))-Gly-Lys-Lys-Lys)aminopropyl)carbamoyl)propoxy)-2-(5-(5-oxo-1-prop-2-enyl(2-6,7,8-trihydronaphthyloxy))pentyloxy)phenyl)propanoic Acid
conjugation yield [1]: 35%

Boc-GK(Dde)K(Dde)K(Dde)-OH
isolated yield [2]: 35%
